# Results published in PubChem BioAssay AID623959 (National Center for Advancing Translational Sciences (NCATS), 2012).
# Chains of the proteins cited; added tags and fusions are not shown.
# UniProt Q8NER1, whole entry, looked up: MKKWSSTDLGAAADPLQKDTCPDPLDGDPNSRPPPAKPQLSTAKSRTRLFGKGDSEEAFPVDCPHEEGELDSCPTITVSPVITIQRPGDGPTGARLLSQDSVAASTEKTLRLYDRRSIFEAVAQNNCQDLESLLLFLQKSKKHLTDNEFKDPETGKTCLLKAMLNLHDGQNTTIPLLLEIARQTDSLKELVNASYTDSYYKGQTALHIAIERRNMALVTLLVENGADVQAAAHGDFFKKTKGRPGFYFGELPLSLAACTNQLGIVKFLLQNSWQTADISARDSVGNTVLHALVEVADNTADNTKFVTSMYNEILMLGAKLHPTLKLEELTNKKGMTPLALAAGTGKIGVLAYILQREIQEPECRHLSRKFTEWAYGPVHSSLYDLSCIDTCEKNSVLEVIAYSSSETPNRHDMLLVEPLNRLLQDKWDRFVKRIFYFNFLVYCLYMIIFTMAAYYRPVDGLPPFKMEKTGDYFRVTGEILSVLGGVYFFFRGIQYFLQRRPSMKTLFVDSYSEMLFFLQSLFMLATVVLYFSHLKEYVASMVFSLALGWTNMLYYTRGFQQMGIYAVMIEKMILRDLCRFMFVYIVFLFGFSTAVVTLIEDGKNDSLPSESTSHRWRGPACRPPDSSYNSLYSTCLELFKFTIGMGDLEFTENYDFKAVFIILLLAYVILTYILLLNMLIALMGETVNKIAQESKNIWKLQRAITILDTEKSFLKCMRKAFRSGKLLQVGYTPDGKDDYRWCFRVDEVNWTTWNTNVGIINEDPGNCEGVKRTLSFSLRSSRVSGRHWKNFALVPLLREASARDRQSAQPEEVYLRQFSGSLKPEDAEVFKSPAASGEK
# Hit rate of the full screen: of about 1,400 compounds, fewer than 10 were called active. Not shown: some 8% with an inconclusive outcome. Calls follow the shape of the dose curve; as a rule, active = well fitted curve in the direction sought with a large enough effect; inconclusive = small, poorly fitted or top-dose-only effect, or another doubt; inactive = no such curve, though single readings can be large or run the other way. Some of the results follow.
# Molecular target: Transient receptor potential cation channel subfamily V member 1 (Homo sapiens) (UniProt Q8NER1)
# Assay: qHTS Assay for Compounds that Act as Potentiators of the Vanilloid Receptor 1: Hit Validation; as to activity change, positive = potentiation: % of control where 0% means no effect
# Conditions: TRPV1-expressing cells, Fluo-8 calcium influx, capsaicin EC20; series mostly up to 42.1 µM; activity change, positive = potentiation: at the top concentration
# Summary of the method: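 TRPV1 cells (2000/well, overnight 35.5 °C) loaded with Fluo-8 calcium dye 40–90 min at room temperature. FDSS fluorescence (ex 480/em 520 nm) read 3 min after compound, then 2 min after capsaicin at EC20.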
# Potency is read from the fitted curve at half-maximal effect.
SMILES,"activity change, positive = potentiation",Potency
Cc1cc(C)n2nc(-c3ccccc3)c(-c3ccccc3)c2n1,inactive: -1.83%,–
c1ccc(Cn2nnc3ccccc32)cc1,inactive: -0.332%,–
Cc1cc(N2CCCC2)nc2ccc(NC(=S)NC(C)C)cc12,inactive: 5.65%,–
NC(=O)C1CCN(c2nnnn2-c2ccccc2)CC1,inactive: 2.02%,–
CN1CCN(C(CNS(=O)(=O)c2ccc([N+](=O)[O-])cc2)c2ccc(F)cc2)CC1 (stereo not given),inactive: -2.94%,–
CC(=O)Nc1cccc(Nc2nc(-c3ccccc3F)nc3ccccc23)c1,inactive: -39.1%,–
O=C(Nc1cccc([N+](=O)[O-])c1)N1CCN(c2ccccc2)CC1,inactive: -38.2%,–
CSc1ccc(/C=N/N2CCN(C)CC2)cc1,inactive: 0.176%,–
COc1ccccc1-c1cc2ccccc2[nH]1,inactive: -5.83%,–
CC(=O)c1cccc(NC(=O)c2ccc3c(c2)CCCC3)c1,inactive: -35.4%,–
COc1cccc(CNC(=O)CCn2ccc3cc(S(=O)(=O)N4CCCC4)ccc32)c1,inactive: -36.9%,–
Cc1ccc(CN2C(=O)CCC2C(=O)NCCCN2CCCC(C)C2)cc1 (stereo not given),inactive: -5.07%,–
Cc1ccc(/C=N/NC(=O)Cc2cccs2)o1,inactive: -3.68%,–
CC(C)(C)c1ccc(NC(=O)NCc2ccco2)cc1,inactive: -39%,–
Cn1c(=O)c2c(-c3ccccc3F)c3c(nc2n(C)c1=O)-c1ccccc1C3O (stereo not given),inactive: -24.5%,–
CCOc1c(C(=O)CC)cc2c(C)cc(=O)oc2c1C,inactive: -1.15%,–
Cc1cc(C)nc(SCC(=O)OCC(=O)Nc2ccccc2)n1,inactive: -4.38%,–
N#CC(C#N)=Cc1ccc(NC(=O)c2ccc(Br)cc2)cc1,inactive: -6.2%,–
Brc1ccccc1C1Nc2cccc3cccc(c23)N1,inactive: -10%,–
Cc1ccc(S(=O)(=O)Oc2ccccc2N2C(=O)C3C4CCC(C4)C3C2=O)cc1 (stereo not given),inactive: 1.98%,–
CCOc1ccc(C(C)NC(=S)NCc2ccc(F)cc2)cc1 (stereo not given),inactive: -32%,–
COc1ccc(NC(=O)CCCSc2nc(-c3ccco3)cc(C(F)(F)F)n2)cc1OC,inactive: -38.7%,–

SMILES,"activity change, positive = potentiation",Potency
COc1ccc(NC(=O)CSc2nn3c(=O)c(C)nnc3s2)cc1,inactive: -8.35%,–
CCOC(=O)CNC(=O)N1CCc2ccc(NC(=O)c3ccccc3Cl)cc2C1,inactive: -6.37%,–
Cn1nc(-c2ccccc2)c2cc([N+](=O)[O-])ccc21,inactive: -1.55%,–
Cc1cccc2c1-c1sc(C(=O)N3CCCCC3)cc1CO2,inactive: -36.2%,–
Cc1cc(NC(=O)c2cc(F)c(F)cc2Cl)no1,inactive: -10.7%,–
CC(C)(C)c1ccc(S(=O)(=O)N2CC(C(=O)O)Oc3ccc(Cl)cc32)cc1 (stereo not given),inactive: -3.16%,–
COCCNC(=O)c1cc(-c2ccccc2)n(CC2CC(c3ccc(OC)cc3)=NO2)n1 (stereo not given),inactive: -3.84%,–
Cc1ccc(/C=C2\CCC3=C2OC(N)=C(C#N)C3c2ccc(C)cc2)cc1 (stereo not given),–,active: 8.05 µM
COc1ccccc1CC(=O)Nc1c[nH]c(=O)[nH]c1=O,inactive: -4.86%,–
COc1ccccc1Nc1nc(N)nc(-c2oc3ccccc3c2C)n1,inactive: -6.22%,–
CC1(C(=O)NCc2ccccc2)Oc2ccccc2NC1=O (stereo not given),inactive: -9.01%,–
COc1ccccc1CNC(=O)CNCCc1ccc(OC)c(OC)c1,inactive: -0.663%,–
O=C(Nc1ccc(F)cc1)c1ccc2ncsc2c1,inactive: -36.9%,–
O=C(N/N=C/c1ccccc1)c1n[nH]c2c1CCCC2,inactive: -30.5%,–
COc1ccc(C(=O)c2sc(Nc3ccc(NC(C)=O)cc3)nc2C)cc1,inactive: 2.12%,–
O=C(NNC(=O)c1ccncc1)Nc1cccc(C(F)(F)F)c1,inactive: 5.3%,–
c1cnc2c(OCc3nc4ccccc4[nH]3)cccc2c1,inactive: -5.99%,–
CCC(C)Sc1ccc([C@H]2N[C@@](CC(C)C)(C(=O)OC)[C@H]3C(=O)N(CC)C(=O)[C@@H]23)cc1 (stereo not given in full),inactive: -37.3%,–
CC(C)Oc1ccc(NC(=O)c2ccncc2)cc1,inactive: -33.9%,–
Cc1ccc(OCCNC(=O)Cc2ccc(F)cc2)cc1,inactive: -38.4%,–
Cc1ccc(/C=N/Nc2nc(N3CCCCC3)nc(N3CCCCC3)n2)o1,inactive: -38.5%,–
CC(C)(C)C(=O)CSc1ncnc2c1cnn2Cc1ccccc1,inactive: -37.9%,–

# An excerpt of these results, bar-delimited:
SMILES | activity change, positive = potentiation | Potency
c1cnc2c(OCc3nc4ccccc4[nH]3)cccc2c1 | inactive: -5.99% | –
CCC(C)Sc1ccc([C@H]2N[C@@](CC(C)C)(C(=O)OC)[C@H]3C(=O)N(CC)C(=O)[C@@H]23)cc1 (stereo not given in full) | inactive: -37.3% | –
CC(C)Oc1ccc(NC(=O)c2ccncc2)cc1 | inactive: -33.9% | –
Cc1ccc(OCCNC(=O)Cc2ccc(F)cc2)cc1 | inactive: -38.4% | –
Cc1ccc(/C=N/Nc2nc(N3CCCCC3)nc(N3CCCCC3)n2)o1 | inactive: -38.5% | –
CC(C)(C)C(=O)CSc1ncnc2c1cnn2Cc1ccccc1 | inactive: -37.9% | –

# Additional structures:

SMILES,"activity change, positive = potentiation",Potency
CCCCNC(=S)NCc1ccc2[nH]c3c(c2c1)CCCC3,inactive: -6.54%,–
Cn1nc(CC(=O)Nc2ccc3c(c2)OCCO3)c2ccccc2c1=O,inactive: 4.52%,–
COc1ccc(N/C=C/C(=O)c2ccc(OC)c(OC)c2)cc1,inactive: 19.2%,–
Cc1[nH]c2ccccc2c1C(c1ccncc1)N1CCC(C)CC1 (stereo not given),inactive: -33.7%,–
O=C(CC1C(=O)NCCN1CCCc1ccccc1)NCCc1ccccc1F (stereo not given),inactive: -5.54%,–
CCCCCCC1CCC(C(=O)N2CCOCC2)CC1 (stereo not given),inactive: -38.8%,–
COC(=O)c1ccccc1NC(=O)CSc1nnc(-c2cccnc2)n1N,inactive: -9.37%,–
O=C(NCCCN1CCOCC1)C1Cc2c(ccc3ccccc23)O1 (stereo not given),inactive: 23%,–
O=C(C1=C[C@@H](c2ccccc2)C[C@@H](OCc2ccc(CO)cc2)O1)N1CCCCCCC1,inactive: -38.9%,–
CCC1(CC)NC(=O)N(CC(=O)OCC(=O)NC(=O)c2ccccc2)C1=O,inactive: -8.83%,–
CCCCNc1c(-c2ccc(OC)c(SC3CCCCC3)c2)nc2cc(C)ccn12,inactive: -38.8%,–
CC(=O)Nc1cc(-c2ccccc2)ccc1O,inactive: -32.7%,–
COCCCNC(=O)c1cc2cc([N+](=O)[O-])cc(OC)c2oc1=O,inactive: -9.84%,–
O=C(CN1C(=O)/C(=C\c2ccco2)SC1=S)Nc1ccc(O)cc1C(=O)O,inactive: -0.62%,–
Nc1cccc(C(=O)OCC(=O)NC2CCCc3ccccc32)c1 (stereo not given),inactive: -8.36%,–
Cc1ccc([N+](=O)[O-])cc1NC(=O)CNC1CCCCC1,inactive: -1.58%,–
O=C(Nc1cccc(S(=O)(=O)N2CCCCC2)c1)c1ccc2ncsc2c1,inactive: -30.7%,–
COCCNC(=O)c1cccc(OC2CCN(Cc3cccc(C(C)=O)c3)CC2)c1,inactive: -4.75%,–
CC1CN(c2nc3c(c(=O)n(Cc4ccc(Cl)cc4)c(=O)n3C)n2C)CC(C)O1 (stereo not given),inactive: -38.7%,–
O=C(NCCN1CCOCC1)C(=O)NCC1OCCCN1S(=O)(=O)c1cc(F)ccc1F (stereo not given),inactive: -6.72%,–
NS(=O)(=O)c1ccc(NC(=O)c2ccc3c(c2)CCCC3)cc1,inactive: -39.6%,–
